Experimental data as given in US9198426B2, “Use of 5 pyridin-4-yl-1,3-thiazoles for controlling phytopathogenic fungi” (Bayer Intellectual Property GmbH, priority 2008, dated 2015).
Read-outs that look alike come from different tables or passages of the source. Some entries share one result that the patent states for a list of compounds.

Key:
Fusarium proliferatum = assay: Production of fumonisin FB1 by Fusarium proliferatum (microtitre plates); assay type: cell-based; details: 50 μM, 5 days, 20° C., HPLC-MS/MS
Fusarium graminearum = assay type: cell-based; details: 50 µM
Fusarium verticillioides = assay: Fumonisin FB1 production by Fusarium verticillioides; assay type: cell-based; details: 50 μM, 6 days, 20° C., HPLC-MS/MS
Alternaria solani [1] = assay: Alternaria test (tomato)/protective (Use Example 1); assay type: in vivo; details: tomato plants, protective, 500 ppm active compound, evaluation 7 days after inoculation
Alternaria solani [2] = assay: Alternaria test (tomato)/protective (Use Example 9); assay type: in vivo; details: tomato plants, protective, 500 ppm, evaluation 7 days after inoculation
Phytophthora infestans = assay type: in vivo
Botrytis cinerea = assay: Botrytis test (bean)/protective; details: protective, 250 ppm, evaluation two days after inoculation
Pyrenophora teres = Pyrenophora teres test (barley)/protective; assay type: in vivo; details: barley plants, protective, 500 ppm, evaluation 7-9 days after inoculation
Leptosphaeria nodorum = Leptosphaeria nodorum test (wheat)/protective; assay type: in vivo; details: wheat plants, protective, 500 ppm, evaluation 7-9 days after inoculation
Septoria tritici = Septoria tritici test (wheat)/protective; assay type: in vivo; details: protective, 500 ppm, evaluation 21 days after inoculation
[3] = tomato plants, protective, 500 ppm, evaluation 7 days after inoculation

Row | Structure (SMILES) | efficacy (Alternaria solani [1]) | efficacy (Botrytis cinerea) | efficacy (Pyrenophora teres) | efficacy (Leptosphaeria nodorum) | also measured
1 | Nc1nc(-c2ccco2)c(-c2ccncc2)s1 [Ex. 1] |  |  |  |  | activity in the inhibition of FB1 production (Fusarium proliferatum): > 70%; activity in the inhibition of DON/AcDON production (Fusarium graminearum): > 70%; efficacy (inhibition of mycotoxin biosynthesis, fumonisin FB1) (Fusarium verticillioides): ≥ 70%
2 | Cc1ccc(-c2nc(-c3cccc(C)c3)c(-c3ccncc3)s2)cc1 [Ex. 4] |  |  |  |  | activity in the inhibition of FB1 production (Fusarium proliferatum): > 70%; efficacy (inhibition of mycotoxin biosynthesis, fumonisin FB1) (Fusarium verticillioides): ≥ 70%
3 | CSc1ccc(-c2nc(-c3ccc(F)cc3)c(-c3ccncc3)s2)cc1 [Ex. 7] |  |  |  |  | activity in the inhibition of FB1 production (Fusarium proliferatum): > 70%; efficacy (inhibition of mycotoxin biosynthesis, fumonisin FB1) (Fusarium verticillioides): ≥ 70%
4 | Cc1cccc(-c2nc(-c3ccc(O)cc3)sc2-c2ccncc2)c1 [Ex. 8] |  |  |  |  | activity in the inhibition of FB1 production (Fusarium proliferatum): > 70%; efficacy (inhibition of mycotoxin biosynthesis, fumonisin FB1) (Fusarium verticillioides): ≥ 70%
5 | CS(=O)(=O)c1ccc(-c2nc(-c3ccc(F)cc3)c(-c3ccncc3)s2)cc1 [Ex. 9] | ≥ 70% |  |  |  | activity in the inhibition of FB1 production (Fusarium proliferatum): > 70%; efficacy (Alternaria solani [2]): ≥ 70%; efficacy (inhibition of mycotoxin biosynthesis, fumonisin FB1) (Fusarium verticillioides): ≥ 70%
6 | C[S+]([O-])c1ccc(-c2nc(-c3ccc(F)cc3)c(-c3ccncc3)s2)cc1 (centres unmarked) [Ex. 10] |  |  |  |  | activity in the inhibition of FB1 production (Fusarium proliferatum): > 70%; efficacy (inhibition of mycotoxin biosynthesis, fumonisin FB1) (Fusarium verticillioides): ≥ 70%
7 | CCc1nc(-c2ccc(F)cc2)c(-c2ccnc(N)c2)s1 [Ex. 35, 4-[2-Ethyl-4-(4-fluorophenyl)-1,3-thiazol-5-yl]pyridine-2-amine] |  |  |  |  | efficacy (Phytophthora infestans; [3]): ≥ 70%
8 | CCc1nc(-c2ccc(F)cc2)c(-c2ccnc(NC3CC3)c2)s1 [Ex. 72, N-Cyclopropyl-4-[2-ethyl-4-(4-fluorophenyl)-1,3-thiazol-5-yl]pyridine-2-amine] |  |  |  |  | efficacy (Phytophthora infestans; [3]): ≥ 70%
9 | Cc1cccc(-c2nc(N)sc2-c2ccncc2)c1 [compound 2] | ≥ 70% |  |  |  | activity in the inhibition of FB1 production (Fusarium proliferatum): > 70%; efficacy (Alternaria solani [2]): ≥ 70%; efficacy (inhibition of mycotoxin biosynthesis, fumonisin FB1) (Fusarium verticillioides): ≥ 70%
10 | Cc1cccc(-c2nc(-c3ccc([S+](C)[O-])cc3)sc2-c2ccncc2)c1 (centres unmarked) [compound 11] |  |  |  |  | activity in the inhibition of FB1 production (Fusarium proliferatum): > 70%; efficacy (inhibition of mycotoxin biosynthesis, fumonisin FB1) (Fusarium verticillioides): ≥ 70%
11 | CCc1nc(-c2cccc(C)c2)c(-c2ccnc(N)c2)s1 [compound 12] | ≥ 70% |  |  |  | 
12 | CC(=O)Nc1nc(-c2cccc(C)c2)c(-c2ccncc2)s1 [compound 13] |  |  |  |  | efficacy (Phytophthora infestans; in vivo): ≥ 70%
13 | CNc1nc(-c2cccc(C)c2)c(-c2ccncc2)s1 [compound 14] | ≥ 70% | ≥ 70% |  |  | efficacy (Phytophthora infestans; in vivo): ≥ 70%
14 | CC(=O)N(C)c1nc(-c2cccc(C)c2)c(-c2ccncc2)s1 [compound 15] |  |  |  |  | efficacy (Phytophthora infestans; in vivo): ≥ 70%
15 | Cc1cccc(-c2nc(C)sc2-c2ccncc2)c1 [compound 16] | ≥ 70% | ≥ 70% | ≥ 70% |  | activity in the inhibition of FB1 production (Fusarium proliferatum): > 70%; activity in the inhibition of DON/AcDON production (Fusarium graminearum): > 70%
16 | CNc1nc(-c2ccc(F)cc2)c(-c2ccncc2)s1 [compound 17] | ≥ 70% | ≥ 70% | ≥ 70% | ≥ 70% | activity in the inhibition of FB1 production (Fusarium proliferatum): > 70%
17 | Fc1ccc(-c2nc(-c3ccccc3)sc2-c2ccncc2)cc1 [compound 18] |  |  |  |  | activity in the inhibition of FB1 production (Fusarium proliferatum): > 70%
18 | Nc1nc(-c2ccccc2)c(-c2ccncc2)s1 [compound 19] |  |  | ≥ 70% |  | activity in the inhibition of FB1 production (Fusarium proliferatum): > 70%
19 | Nc1nc(-c2ccccc2Cl)c(-c2ccncc2)s1 [compound 20] |  |  |  | ≥ 70% | 
20 | Fc1ccc(-c2ncsc2-c2ccncc2)cc1 [compound 21] | ≥ 70% |  | ≥ 70% |  | 
21 | CCc1cccc(-c2nc(N)sc2-c2ccncc2)c1 [compound 22] | ≥ 70% | ≥ 70% |  |  | efficacy (Phytophthora infestans; in vivo): ≥ 70%
22 | Cc1ccccc1-c1nc(N)sc1-c1ccncc1 [compound 23] |  |  |  |  | efficacy (Phytophthora infestans; in vivo): ≥ 70%
23 | CCc1nc(-c2cccc(C)c2)c(-c2ccnc(NC(C)=O)c2)s1 [compound 24] | ≥ 70% | ≥ 70% | ≥ 70% |  | 
24 | Cc1ccc(-c2nc(N)sc2-c2ccncc2)cc1 [compound 25] |  |  |  |  | efficacy (Phytophthora infestans; in vivo): ≥ 70%
25 | CCc1nc(-c2ccc(C)cc2)c(-c2ccncc2)s1 [compound 26] | ≥ 70% | ≥ 70% | ≥ 70% | ≥ 70% | efficacy (Septoria tritici): ≥ 70%
26 | CCc1nc(-c2ccc(Cl)cc2)c(-c2ccncc2)s1 [compound 27] |  |  | ≥ 70% | ≥ 70% | 
27 | CCc1nc(-c2ccccc2)c(-c2ccncc2)s1 [compound 28] |  | ≥ 70% | ≥ 70% | ≥ 70% | efficacy (Septoria tritici): ≥ 70%
28 | COc1cccc(-c2nc(N)sc2-c2ccncc2)c1 [compound 29] |  |  |  |  | efficacy (Phytophthora infestans; in vivo): ≥ 70%

Row | Structure (SMILES) | efficacy (Alternaria solani [1]) | efficacy (Botrytis cinerea) | efficacy (Pyrenophora teres) | efficacy (Leptosphaeria nodorum) | also measured
29 | CCc1nc(-c2cccc(Cl)c2)c(-c2ccncc2)s1 [compound 30] |  |  | ≥ 70% |  | 
30 | CCc1nc(-c2ccc(F)cc2)c(-c2ccnc(NC(=O)c3ccccc3)c2)s1 [compound 31] |  | ≥ 70% | ≥ 70% | ≥ 70% | efficacy (Septoria tritici): ≥ 70%
31 | CCc1nc(-c2ccc(F)cc2)c(-c2ccnc(NC(C)=O)c2)s1 [compound 32] | ≥ 70% | ≥ 70% | ≥ 70% | ≥ 70% | efficacy (Phytophthora infestans; in vivo): ≥ 70%; efficacy (Septoria tritici): ≥ 70%
32 | CCC(=O)Nc1cc(-c2sc(CC)nc2-c2ccc(F)cc2)ccn1 [compound 33] | ≥ 70% | ≥ 70% | ≥ 70% | ≥ 70% | efficacy (Phytophthora infestans; in vivo): ≥ 70%; efficacy (Septoria tritici): ≥ 70%
33 | CCc1nc(-c2cccc(C)c2)c(-c2ccnc(N3CCCC3)c2)s1 [compound 34] |  |  |  | ≥ 70% | efficacy (Phytophthora infestans; in vivo): ≥ 70%
34 | CCC(=O)Nc1cc(-c2sc(CC)nc2-c2cccc(C)c2)ccn1 [compound 36] | ≥ 70% | ≥ 70% | ≥ 70% |  | efficacy (Phytophthora infestans; in vivo): ≥ 70%
35 | CCc1nc(-c2cccc(C)c2)c(-c2ccnc(NC(=O)C(C)(C)C)c2)s1 [compound 37] | ≥ 70% |  | ≥ 70% |  | 
36 | CCc1nc(-c2cccc(C)c2)c(-c2ccnc(NC(=O)c3ccc(OC)cc3)c2)s1 [compound 38] | ≥ 70% |  |  |  | 
37 | CCc1nc(-c2cccc(C)c2)c(-c2ccnc(NC(=O)c3cccs3)c2)s1 [compound 39] | ≥ 70% |  |  |  | 
38 | CCc1nc(-c2cccc(C)c2)c(-c2ccnc(NC(=O)Cc3ccccc3)c2)s1 [compound 40] | ≥ 70% |  |  |  | 
39 | CCc1nc(-c2ccc(Cl)s2)c(-c2ccncc2)s1 [compound 42] | ≥ 70% | ≥ 70% | ≥ 70% | ≥ 70% | efficacy (Septoria tritici): ≥ 70%
40 | CC(C)c1nc(-c2ccc(F)cc2)c(-c2ccncc2)s1 [compound 43] |  | ≥ 70% | ≥ 70% | ≥ 70% | efficacy (Septoria tritici): ≥ 70%
41 | Cc1nc(-c2ccc(F)cc2)c(-c2ccncc2)s1 [compound 44] |  | ≥ 70% | ≥ 70% |  | efficacy (Septoria tritici): ≥ 70%
42 | Fc1ccc(-c2nc(Cc3ccccc3)sc2-c2ccncc2)cc1 [compound 45] |  |  | ≥ 70% | ≥ 70% | efficacy (Septoria tritici): ≥ 70%
43 | CCCCc1nc(-c2ccc(F)cc2)c(-c2ccncc2)s1 [compound 47] | ≥ 70% |  |  |  | 
44 | CCc1nc(-c2ccc(C)c(C)c2)c(-c2ccncc2)s1 [compound 48] |  |  | ≥ 70% | ≥ 70% | 
45 | CCc1nc(-c2ccc(F)cc2)c(-c2ccnc(NC(=O)C(C)(C)C)c2)s1 [compound 51] | ≥ 70% | ≥ 70% | ≥ 70% | ≥ 70% | efficacy (Septoria tritici): ≥ 70%
46 | CCc1nc(-c2ccc(F)cc2)c(-c2ccnc(NC(=O)c3ccc(OC)cc3)c2)s1 [compound 53] |  |  | ≥ 70% |  | 
47 | CCc1nc(-c2ccc(F)cc2)c(-c2ccnc(NC(=O)c3cccs3)c2)s1 [compound 56] |  | ≥ 70% | ≥ 70% | ≥ 70% | 
48 | CCc1nc(-c2ccc(F)cc2)c(-c2ccnc(NC(=O)c3ccsc3)c2)s1 [compound 57] |  |  | ≥ 70% | ≥ 70% | efficacy (Septoria tritici): ≥ 70%
49 | CCc1nc(-c2ccc(F)cc2)c(-c2ccnc(N(C)C(C)=O)c2)s1 [compound 68] |  |  |  |  | efficacy (Phytophthora infestans; in vivo): ≥ 70%
50 | CCc1nc(-c2ccc(F)cc2)c(-c2ccnc(NC(C)CO)c2)s1 (centres unmarked) [compound 71] | ≥ 70% |  |  |  | efficacy (Phytophthora infestans; in vivo): ≥ 70%
51 | C=CCNc1cc(-c2sc(CC)nc2-c2ccc(F)cc2)ccn1 [compound 74] | ≥ 70% |  |  |  | 
52 | CCNc1cc(-c2sc(CC)nc2-c2ccc(F)cc2)ccn1 [compound 76] | ≥ 70% | ≥ 70% | ≥ 70% | ≥ 70% | 
53 | CCc1nc(-c2ccc(F)cc2)c(-c2ccnc(NCC(C)OC)c2)s1 (centres unmarked) [compound 78] |  |  | ≥ 70% |  | 
54 | CCc1nc(-c2ccc(F)cc2)c(-c2ccnc(NCC(F)F)c2)s1 [compound 79] | ≥ 70% |  | ≥ 70% | ≥ 70% | 
55 | CCc1nc(-c2cccs2)c(-c2ccncc2)s1 [compound 103] |  | ≥ 70% | ≥ 70% |  | 
